# Measured values: US20130196915, “AFFINITY HYDROGELS FOR CONTROLLED PROTEIN RELEASE” (published 2013)
# Protein sequences, listed by entry. Tags and fused reporters are not part of them. Residues count along the entry.
# UniProt P01127, 82-190: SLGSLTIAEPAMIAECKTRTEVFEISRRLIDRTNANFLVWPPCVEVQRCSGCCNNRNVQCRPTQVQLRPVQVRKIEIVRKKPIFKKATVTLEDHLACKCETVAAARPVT
# Weaker means in comparison with the reference protein, sequence or condition of that experiment. For at least one entry, the source does not settle the construct or the ends of the probe.
# Biological target: PDGF-BB (Homo sapiens) (UniProt P01127)
# Test: SPR
# Conditions: purified recombinant protein, protein details: R&D Systems, amine-coupled to SPR chip, single-stranded DNA
Sequence,"binding result (CO (0-500 nM) accelerates dissociation, sequence assigned to SEQ 22 by length, variant of 36-nt truncated aptamer)","binding result (weaker than S1, variant of S1)"
ACAGGCTACGGCACGTAGAGCATCACCATGATCCTGTGACAACACCAAAAT [36-nt aptamer with 15-nt 3' tail],binds,–
CGCATGCTCAACAGGCTACGGCACGTAGAGCATCACCATGATCCTG [S5],–,binds more weakly
GCCGTTCCAAACAGGCTACGGCACGTAGAGCATCACCATGATCCTG [S7],–,binds more weakly
TGCCATGCCAACAGGCTACGGCACGTAGAGCATCACCATGATCCTG [S8],–,binds more weakly
